These are yes or no findings as the source states them, for the method shown. Some results given as binding are weak or reduced against the parent protein; the word gives no strength.
Assays:
[1] = biological target: T1, aspartyl (asparaginyl) β-hydroxylase (ASPH) (UniProt Q12797 75-758, limits assumed); test: SPR (SensiQ Pioneer), antibody captured via Protein G on a COOH2 chip, ASPH injected as analyte at 15.6-500 nM
T1 construct: also called ASPH protein
T1 sequence (looked up): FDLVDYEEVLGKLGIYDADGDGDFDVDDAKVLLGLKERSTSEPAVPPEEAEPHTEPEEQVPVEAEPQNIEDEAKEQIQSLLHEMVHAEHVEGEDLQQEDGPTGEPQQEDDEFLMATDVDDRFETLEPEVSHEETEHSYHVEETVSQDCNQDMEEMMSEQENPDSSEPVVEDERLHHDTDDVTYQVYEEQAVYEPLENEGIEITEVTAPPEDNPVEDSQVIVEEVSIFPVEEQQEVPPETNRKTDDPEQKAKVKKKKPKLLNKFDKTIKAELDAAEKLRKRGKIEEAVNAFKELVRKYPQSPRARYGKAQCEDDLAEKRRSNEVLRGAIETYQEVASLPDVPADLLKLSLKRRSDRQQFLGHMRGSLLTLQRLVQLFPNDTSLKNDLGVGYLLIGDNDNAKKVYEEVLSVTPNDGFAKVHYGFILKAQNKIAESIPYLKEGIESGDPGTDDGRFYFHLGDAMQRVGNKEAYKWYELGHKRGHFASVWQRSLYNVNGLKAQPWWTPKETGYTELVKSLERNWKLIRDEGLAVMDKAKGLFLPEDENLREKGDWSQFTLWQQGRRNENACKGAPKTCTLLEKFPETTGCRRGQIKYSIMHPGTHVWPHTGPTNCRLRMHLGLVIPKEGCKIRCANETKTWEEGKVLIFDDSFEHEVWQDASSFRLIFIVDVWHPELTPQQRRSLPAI

[2] = biological target: T1, aspartyl (asparaginyl) β-hydroxylase …; test: SPR, antibody captured via Protein G, ASPH as analyte
Experimental: The interaction between ASPH and a set of 6 antibodies were characterized by Essai Sciences LLC (Stillwater, Okla.) on a SensiQ Pioneer SPR Platform. The COOH2 sensor chip, which contains a planar dextran surface, was used for target immobilization. The buffer system was 10 mM HEPES, pH 7.4, 150 mM NaCl, and 0.01% Tween-20.
All channels of a COOH2 sensor chip were activated with a five-minute injection of 40 mM EDC and 10 mM NHS. Protein G was then injected across channels 1 and 2. 1 M ethanolamine, pH 8.0 was then injected across all three channels. Approximately 1000 response units of Protein G were captured on both channels 1 and 2 (FIG. 18). For each antibody-ASPH interaction, the antibody was injected on channel 1, leaving channels 2 and 3 as a Protein G reference and empty channel reference, respectively. After antibody capture, ASPH was injected at a single concentration. Following injection of ASPH, all three channels were injected with 10 mM NaOH for one minute to regenerate the Protein G surface. This was done twice for each antibody, at each tested concentration of ASPH.

- binding [1]: binds
- binding [2]: binds
B1: 5H4/5K3 (antibody, V domains shown)
VH: QSLEESGGDLVKPGASLTLTCKASGFDFSSNAMCWVRQAPGKGPEWIACIDNGDGSTDYATWAKGRFTISKTSSTTVTLQMTSLTAADTATYFCTRNFNLWGQGTLVTVSS
VL: AQVLTQTASSVSAAVGGTVTISCQSSQSVYDNNRLAWFQQKPGQPPKLLIYETSKLASGVPLRFKGSGSGTQFTLTISDLECDDAATYYCLGSYSGYIYTFGGGTEVVVKG
notes: The entries are translated variable regions that still carry the leader and the start of the constant region (GQPK... / GDPV...)
